Source: the supplement of paper PMC7666118
Some of the results follow.

The chains behind the UniProt entries cited, without tags or fusion partners. Where a name states a change or a piece, a line headed by the entry shows the natural chain unless it says otherwise.
UniProt O15347: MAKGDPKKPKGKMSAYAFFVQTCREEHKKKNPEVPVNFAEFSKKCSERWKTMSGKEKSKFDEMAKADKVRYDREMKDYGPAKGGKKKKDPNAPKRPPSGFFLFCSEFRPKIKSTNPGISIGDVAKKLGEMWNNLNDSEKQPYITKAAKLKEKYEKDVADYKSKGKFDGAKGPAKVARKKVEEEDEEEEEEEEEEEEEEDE
UniProt Q96G21: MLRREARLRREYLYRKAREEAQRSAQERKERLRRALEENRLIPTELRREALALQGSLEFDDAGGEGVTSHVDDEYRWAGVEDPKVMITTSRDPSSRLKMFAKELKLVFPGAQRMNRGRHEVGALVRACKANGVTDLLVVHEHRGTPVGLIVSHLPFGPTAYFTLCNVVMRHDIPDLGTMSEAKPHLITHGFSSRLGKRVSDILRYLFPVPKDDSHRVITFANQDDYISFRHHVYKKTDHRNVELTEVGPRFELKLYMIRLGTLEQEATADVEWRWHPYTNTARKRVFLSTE
UniProt Q9BW62: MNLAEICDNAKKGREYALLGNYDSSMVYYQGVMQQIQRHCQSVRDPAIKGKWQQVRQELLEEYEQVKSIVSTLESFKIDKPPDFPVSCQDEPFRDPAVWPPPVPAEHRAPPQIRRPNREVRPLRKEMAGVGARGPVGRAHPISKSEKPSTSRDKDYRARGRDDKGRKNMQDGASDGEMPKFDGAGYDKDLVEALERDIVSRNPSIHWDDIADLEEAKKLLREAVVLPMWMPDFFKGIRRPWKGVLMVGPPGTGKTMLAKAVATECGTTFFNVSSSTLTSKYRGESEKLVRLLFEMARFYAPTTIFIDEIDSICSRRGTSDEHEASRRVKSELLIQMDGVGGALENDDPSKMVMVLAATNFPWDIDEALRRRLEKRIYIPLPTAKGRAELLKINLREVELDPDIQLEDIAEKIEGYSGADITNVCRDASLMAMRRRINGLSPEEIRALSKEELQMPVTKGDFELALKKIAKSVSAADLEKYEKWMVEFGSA
UniProt Q96S16: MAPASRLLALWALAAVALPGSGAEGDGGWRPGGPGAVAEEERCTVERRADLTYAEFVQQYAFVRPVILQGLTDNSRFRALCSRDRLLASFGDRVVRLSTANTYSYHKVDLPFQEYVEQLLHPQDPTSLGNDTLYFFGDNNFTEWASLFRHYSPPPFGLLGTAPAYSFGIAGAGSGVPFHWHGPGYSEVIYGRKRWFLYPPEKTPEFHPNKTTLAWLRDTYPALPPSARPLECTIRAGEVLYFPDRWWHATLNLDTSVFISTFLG
UniProt Q7Z4H8: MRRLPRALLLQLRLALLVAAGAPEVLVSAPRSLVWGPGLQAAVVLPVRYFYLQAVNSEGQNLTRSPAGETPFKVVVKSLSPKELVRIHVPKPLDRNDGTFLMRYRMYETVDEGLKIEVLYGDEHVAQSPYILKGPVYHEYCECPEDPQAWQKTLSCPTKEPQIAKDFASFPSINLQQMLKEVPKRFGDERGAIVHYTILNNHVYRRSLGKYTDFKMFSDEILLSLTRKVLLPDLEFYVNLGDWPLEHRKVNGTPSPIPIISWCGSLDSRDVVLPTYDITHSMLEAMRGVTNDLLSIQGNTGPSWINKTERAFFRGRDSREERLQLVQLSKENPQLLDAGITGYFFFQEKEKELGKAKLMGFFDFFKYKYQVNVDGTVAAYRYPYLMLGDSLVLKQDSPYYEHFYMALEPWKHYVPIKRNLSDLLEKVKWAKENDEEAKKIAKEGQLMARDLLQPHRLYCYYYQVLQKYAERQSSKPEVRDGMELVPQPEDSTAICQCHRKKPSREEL
UniProt P17096: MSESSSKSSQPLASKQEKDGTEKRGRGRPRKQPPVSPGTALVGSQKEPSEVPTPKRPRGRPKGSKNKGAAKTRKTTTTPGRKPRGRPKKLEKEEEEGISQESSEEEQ
UniProt P20839, whole entry, looked up: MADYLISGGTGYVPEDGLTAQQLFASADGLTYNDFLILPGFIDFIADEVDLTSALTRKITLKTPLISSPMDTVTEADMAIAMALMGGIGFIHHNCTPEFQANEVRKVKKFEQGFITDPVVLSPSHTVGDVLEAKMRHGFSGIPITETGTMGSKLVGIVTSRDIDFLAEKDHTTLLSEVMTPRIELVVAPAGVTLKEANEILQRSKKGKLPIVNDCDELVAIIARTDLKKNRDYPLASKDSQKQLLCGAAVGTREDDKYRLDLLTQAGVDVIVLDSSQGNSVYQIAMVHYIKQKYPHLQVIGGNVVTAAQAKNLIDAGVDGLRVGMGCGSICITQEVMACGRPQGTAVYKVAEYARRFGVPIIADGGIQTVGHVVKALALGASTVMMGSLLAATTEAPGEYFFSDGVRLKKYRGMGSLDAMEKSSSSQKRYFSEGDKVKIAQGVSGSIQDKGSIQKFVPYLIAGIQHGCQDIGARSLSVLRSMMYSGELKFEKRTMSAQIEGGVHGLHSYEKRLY
UniProt Q9P0W2: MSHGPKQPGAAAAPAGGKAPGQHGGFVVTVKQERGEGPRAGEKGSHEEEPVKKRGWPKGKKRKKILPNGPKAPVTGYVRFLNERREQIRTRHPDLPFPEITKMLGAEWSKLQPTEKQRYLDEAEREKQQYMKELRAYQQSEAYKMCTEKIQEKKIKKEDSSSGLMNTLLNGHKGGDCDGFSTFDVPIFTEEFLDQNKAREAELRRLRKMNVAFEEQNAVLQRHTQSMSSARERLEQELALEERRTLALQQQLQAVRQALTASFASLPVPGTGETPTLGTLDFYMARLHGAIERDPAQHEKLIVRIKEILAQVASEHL
UniProt Q9ULR0: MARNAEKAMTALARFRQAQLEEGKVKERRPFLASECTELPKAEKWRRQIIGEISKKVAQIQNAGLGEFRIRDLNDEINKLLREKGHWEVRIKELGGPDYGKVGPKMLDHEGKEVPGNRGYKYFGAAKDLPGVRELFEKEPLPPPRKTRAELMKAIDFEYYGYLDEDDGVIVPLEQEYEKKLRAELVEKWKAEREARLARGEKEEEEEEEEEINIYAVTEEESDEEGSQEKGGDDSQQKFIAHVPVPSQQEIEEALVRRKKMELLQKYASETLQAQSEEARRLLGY
UniProt Q14145, whole entry: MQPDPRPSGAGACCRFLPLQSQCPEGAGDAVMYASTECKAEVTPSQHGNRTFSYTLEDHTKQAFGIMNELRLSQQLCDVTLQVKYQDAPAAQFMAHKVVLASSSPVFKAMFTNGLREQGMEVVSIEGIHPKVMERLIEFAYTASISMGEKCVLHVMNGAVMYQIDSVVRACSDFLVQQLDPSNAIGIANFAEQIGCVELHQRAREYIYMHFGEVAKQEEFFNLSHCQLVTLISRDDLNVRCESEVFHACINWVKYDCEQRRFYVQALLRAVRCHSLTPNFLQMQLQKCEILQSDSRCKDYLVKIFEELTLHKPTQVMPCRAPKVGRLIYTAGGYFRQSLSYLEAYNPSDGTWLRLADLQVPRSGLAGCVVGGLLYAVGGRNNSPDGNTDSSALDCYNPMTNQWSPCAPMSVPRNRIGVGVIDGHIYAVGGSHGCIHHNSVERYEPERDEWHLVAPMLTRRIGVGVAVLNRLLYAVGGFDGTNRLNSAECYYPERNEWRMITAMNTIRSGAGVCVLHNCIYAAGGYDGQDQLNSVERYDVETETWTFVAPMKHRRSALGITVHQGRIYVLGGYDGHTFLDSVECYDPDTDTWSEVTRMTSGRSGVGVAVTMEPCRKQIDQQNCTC
UniProt P17181: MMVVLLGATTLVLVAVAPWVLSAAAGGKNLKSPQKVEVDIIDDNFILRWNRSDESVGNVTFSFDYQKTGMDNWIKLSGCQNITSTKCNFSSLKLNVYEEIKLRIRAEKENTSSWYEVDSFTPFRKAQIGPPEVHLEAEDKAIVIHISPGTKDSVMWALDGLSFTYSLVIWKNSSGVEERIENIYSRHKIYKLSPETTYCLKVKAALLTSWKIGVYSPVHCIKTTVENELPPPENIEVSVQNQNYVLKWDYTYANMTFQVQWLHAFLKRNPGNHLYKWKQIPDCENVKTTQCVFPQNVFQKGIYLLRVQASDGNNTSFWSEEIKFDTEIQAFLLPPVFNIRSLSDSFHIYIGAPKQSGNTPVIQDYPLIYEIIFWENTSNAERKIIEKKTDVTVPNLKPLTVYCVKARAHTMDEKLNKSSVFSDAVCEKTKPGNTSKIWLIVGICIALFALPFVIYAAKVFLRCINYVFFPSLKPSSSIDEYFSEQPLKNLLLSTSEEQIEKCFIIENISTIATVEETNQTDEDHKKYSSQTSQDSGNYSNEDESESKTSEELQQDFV
UniProt Q96HW7, whole entry: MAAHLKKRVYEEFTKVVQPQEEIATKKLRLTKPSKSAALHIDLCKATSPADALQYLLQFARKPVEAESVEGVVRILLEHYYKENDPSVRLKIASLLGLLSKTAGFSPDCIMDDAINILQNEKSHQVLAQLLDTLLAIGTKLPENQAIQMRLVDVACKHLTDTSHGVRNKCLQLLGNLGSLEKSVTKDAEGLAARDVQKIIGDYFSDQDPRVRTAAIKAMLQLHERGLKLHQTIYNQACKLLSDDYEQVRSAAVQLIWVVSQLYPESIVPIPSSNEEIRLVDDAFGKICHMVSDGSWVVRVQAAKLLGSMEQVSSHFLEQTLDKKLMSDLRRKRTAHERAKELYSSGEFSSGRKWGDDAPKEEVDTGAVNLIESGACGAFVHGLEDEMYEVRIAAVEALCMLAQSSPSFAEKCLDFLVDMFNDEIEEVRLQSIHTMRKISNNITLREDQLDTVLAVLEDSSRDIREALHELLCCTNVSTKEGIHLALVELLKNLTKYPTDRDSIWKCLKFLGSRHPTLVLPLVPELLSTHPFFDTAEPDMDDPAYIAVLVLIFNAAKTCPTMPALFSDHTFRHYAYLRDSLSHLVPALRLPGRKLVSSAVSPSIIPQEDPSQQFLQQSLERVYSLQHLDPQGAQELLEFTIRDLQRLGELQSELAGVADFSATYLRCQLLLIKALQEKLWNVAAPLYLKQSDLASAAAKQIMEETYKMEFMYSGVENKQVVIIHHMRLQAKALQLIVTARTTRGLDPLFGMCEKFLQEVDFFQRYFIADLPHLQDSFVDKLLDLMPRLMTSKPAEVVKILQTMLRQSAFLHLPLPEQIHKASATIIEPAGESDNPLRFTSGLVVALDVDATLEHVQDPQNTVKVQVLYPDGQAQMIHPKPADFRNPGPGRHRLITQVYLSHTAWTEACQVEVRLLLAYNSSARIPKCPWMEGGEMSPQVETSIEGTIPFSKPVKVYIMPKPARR
UniProt Q8IZA0: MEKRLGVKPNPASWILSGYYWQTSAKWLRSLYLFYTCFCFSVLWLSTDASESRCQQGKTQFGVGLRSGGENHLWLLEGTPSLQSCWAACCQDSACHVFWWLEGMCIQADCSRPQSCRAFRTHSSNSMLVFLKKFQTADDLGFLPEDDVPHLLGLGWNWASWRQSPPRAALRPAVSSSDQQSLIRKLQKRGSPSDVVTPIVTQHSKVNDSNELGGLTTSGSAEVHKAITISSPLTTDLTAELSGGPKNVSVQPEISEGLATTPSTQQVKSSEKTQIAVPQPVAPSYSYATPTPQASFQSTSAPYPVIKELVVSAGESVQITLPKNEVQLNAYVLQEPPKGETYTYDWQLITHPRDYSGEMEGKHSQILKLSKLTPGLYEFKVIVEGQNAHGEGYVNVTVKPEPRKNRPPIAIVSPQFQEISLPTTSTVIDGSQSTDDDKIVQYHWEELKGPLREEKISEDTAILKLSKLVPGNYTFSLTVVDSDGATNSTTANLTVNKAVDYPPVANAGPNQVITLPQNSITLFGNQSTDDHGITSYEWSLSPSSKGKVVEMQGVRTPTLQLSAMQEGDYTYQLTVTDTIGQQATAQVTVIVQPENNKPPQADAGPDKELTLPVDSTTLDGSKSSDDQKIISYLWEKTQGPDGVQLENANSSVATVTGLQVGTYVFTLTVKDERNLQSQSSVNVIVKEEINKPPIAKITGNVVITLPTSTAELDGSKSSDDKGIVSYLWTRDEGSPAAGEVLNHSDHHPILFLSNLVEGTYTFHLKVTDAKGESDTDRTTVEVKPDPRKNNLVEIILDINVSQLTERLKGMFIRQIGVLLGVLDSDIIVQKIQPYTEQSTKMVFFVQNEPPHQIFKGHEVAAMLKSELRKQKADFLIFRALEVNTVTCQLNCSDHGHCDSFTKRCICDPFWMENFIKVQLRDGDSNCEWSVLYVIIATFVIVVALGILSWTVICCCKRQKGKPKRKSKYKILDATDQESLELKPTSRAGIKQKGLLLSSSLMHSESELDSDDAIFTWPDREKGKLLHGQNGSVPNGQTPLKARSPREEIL
UniProt Q9NWB7: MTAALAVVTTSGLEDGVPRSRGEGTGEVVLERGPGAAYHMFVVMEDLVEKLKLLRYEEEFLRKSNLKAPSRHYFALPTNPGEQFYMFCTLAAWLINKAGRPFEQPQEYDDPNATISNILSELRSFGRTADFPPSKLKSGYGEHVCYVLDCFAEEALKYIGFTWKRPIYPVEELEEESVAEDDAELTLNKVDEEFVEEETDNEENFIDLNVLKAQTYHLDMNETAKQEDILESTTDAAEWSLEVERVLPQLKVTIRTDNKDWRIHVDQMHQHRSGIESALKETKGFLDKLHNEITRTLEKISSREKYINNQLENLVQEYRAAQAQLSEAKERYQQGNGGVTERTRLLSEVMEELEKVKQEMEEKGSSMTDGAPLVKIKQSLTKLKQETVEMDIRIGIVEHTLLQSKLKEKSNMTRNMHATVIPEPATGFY

Compound: COc1ccc(Cn2ccc3ccc(C(=O)NO)cc32)cc1
Assay: dose-dependent thermal stabilisation call (2D-TPP, DLPTP, 10% FDR) (binary (1 = stabilised)); higher = stabilised by the compound
Details: system: HL-60 intact cells; concentration range 0.04-10 µM

Target | dose-dependent thermal stabilisation call
HMGB3 (UniProt O15347) | inactive: 0
HOMER3 (UniProt Q9NSC5) | inactive: 0
HNRNPH1 (UniProt P31943) | inactive: 0
IMP4 (UniProt Q96G21) | inactive: 0
KATNAL1 (UniProt Q9BW62) | inactive: 0
JMJD8 (UniProt Q96S16) | inactive: 0
KDELC2 (UniProt Q7Z4H8) | inactive: 0
IQGAP1 (UniProt P46940) | inactive: 0
HMHA1 (UniProt Q92619) | inactive: 0
JMJD1C (UniProt Q15652) | inactive: 0
IL16 (UniProt Q14005) | inactive: 0
HN1L | inactive: 0
HMGA1 (UniProt P17096) | inactive: 0
IMPA1 (UniProt P29218) | inactive: 0
IMPDH1 (UniProt P20839) | inactive: 0
HMG20B (UniProt Q9P0W2) | inactive: 0
ISY1 (UniProt Q9ULR0) | inactive: 0
IRF2BP2 (UniProt Q7Z5L9) | inactive: 0
IGBP1 (UniProt P78318) | inactive: 0

Taken from above:
For dose-dependent thermal stabilisation call, KATNAL1 (UniProt Q9BW62) shows inactive: 0
For dose-dependent thermal stabilisation call, IQGAP1 (UniProt P46940) shows inactive: 0
For dose-dependent thermal stabilisation call, HMHA1 (UniProt Q92619) shows inactive: 0

Additional entries

Target | dose-dependent thermal stabilisation call
ITM2A (UniProt O43736) | inactive: 0
HPRT1 (UniProt P00492) | inactive: 0
HSD17B10 (UniProt Q99714) | inactive: 0
HPCAL1 (UniProt P37235) | inactive: 0
IPO9 (UniProt Q96P70) | inactive: 0
HSPC152 (UniProt Q9UI30) | inactive: 0
HSPA2 (UniProt P54652) | inactive: 0
KEAP1 (UniProt Q14145) | inactive: 0
HMGCL (UniProt P35914) | inactive: 0
HSPA8 (UniProt P11142) | active: 1
IL27RA (UniProt Q6UWB1) | inactive: 0
KIAA0406 (UniProt O43156) | inactive: 0
IFNAR1 (UniProt P17181) | inactive: 0
INTS4 (UniProt Q96HW7) | inactive: 0
KIAA0319L (UniProt Q8IZA0) | inactive: 0
HMGN1 (UniProt P05114) | inactive: 0
IFT57 (UniProt Q9NWB7) | inactive: 0
HPS5 (UniProt Q9UPZ3) | inactive: 0
IGF2BP3 (UniProt O00425) | inactive: 0
